Values from PubChem BioAssay AID743121 (NCATS, 2013).
Here is one part, drawn at random, of about 26,000 reagents. 167 of them (0.63%) were called active. 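Calls are per gene from RSA p-values that are not deposited; an individual active-marked siRNA can sensitise only weakly.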 Reagents against one gene are numbered here. Not all columns of the deposit are shown.

Assay: 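Knock-downs that sensitise breast cancer cells to camptothecin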 (primary screen)
Cell system: MDA-MB-231 cells, a human breast cancer line
Reagents: single siRNA against human genes, 20 nM siRNA (0.8 pmol per well)
Time to read-out: 120 h (drug added 48 h after transfection, read 72 h later)
Challenge: camptothecin 20 nM (about EC30) for 72 h; vehicle 0.1% DMSO in parallel plates
Measured: 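Cell viability by ATP luminescence (CellTiter-Glo) as % of non-targeting siRNA wells, and the log2 ratio of viability without drug over viability with camptothecin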
Reading the numbers: log2 vehicle/camptothecin viability: higher = stronger sensitisation to camptothecin; viability with camptothecin: higher = more viable cells
Rule for the call: 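Active genes have an RSA gene-level p-value below 0.001, computed from the ratios of their separate siRNAs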

Against HMBS #1, the values are log2 vehicle/camptothecin viability -0.00545; viability with camptothecin (% of control) = 46.2; inactive.
With knock-down of HMBS #2, the record shows log2 vehicle/camptothecin viability 0.108; viability with camptothecin (% of control) = 79.1; inactive.
After knock-down of HMBS #3, the screen gave log2 vehicle/camptothecin viability -0.571; viability with camptothecin (% of control) = 77.2; inactive.
Depletion of NPY4R #1 resulted in: log2 vehicle/camptothecin viability -0.314; viability with camptothecin (% of control) = 70.1; inactive.
With knock-down of NPY4R #2, the record shows log2 vehicle/camptothecin viability -0.371; viability with camptothecin (% of control) = 111; inactive.
Against NPY4R #3, the entry reads log2 vehicle/camptothecin viability -0.0525; viability with camptothecin (% of control) = 74.4; inactive.
Depletion of NPY4R #4 came out at: log2 vehicle/camptothecin viability -0.197; viability with camptothecin (% of control) = 93.9; inactive.
CMKLR2 #1 scored log2 vehicle/camptothecin viability 0.307; viability with camptothecin (% of control) = 83.9; inactive.
With knock-down of CMKLR2 #2, the record shows log2 vehicle/camptothecin viability -0.212; viability with camptothecin (% of control) = 95.4; inactive.
CMKLR2 #3 gave log2 vehicle/camptothecin viability -0.271; viability with camptothecin (% of control) = 65.6; inactive.
Knock-down of CMKLR2 #4 came out at: log2 vehicle/camptothecin viability -0.0923; viability with camptothecin (% of control) = 88.6; inactive.
ITM2B #1 showed log2 vehicle/camptothecin viability 0.489; viability with camptothecin (% of control) = 79; inactive.
Knock-down of ITM2B #2 resulted in: log2 vehicle/camptothecin viability 0.0866; viability with camptothecin (% of control) = 83.3; inactive.
Silencing of ITM2B #3 resulted in: log2 vehicle/camptothecin viability -0.106; viability with camptothecin (% of control) = 51.5; inactive.
ITM2B #4 scored log2 vehicle/camptothecin viability 0.0296; viability with camptothecin (% of control) = 83.8; inactive.

A few values from the entries so far.
Entry for NPY4R #3 under “viability with camptothecin (% of control)”: 74.4
Under “log2 vehicle/camptothecin viability”, NPY4R #2 shows -0.371
